Source: ChEMBL document CHEMBL3988442, “University of Dundee, Small-Polar-MMV Screening Library” (2021).

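Assay of Toxoplasma gondii numbers, read through their beta-galactosidase reporter with a colour substrate. Tested at 50 µM. Higher reads as fewer parasites (inferred from which compounds were picked for retests). Of about 18,000 compounds tested this way, about 170 (0.94%) reached 50% or more in at least one test.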

Each number is a percent effect as filed.
The record does not define 0% and 100%; most values in the screen are far below 50% and negative numbers occur (in some assays of this library far below -100).
Compounds were drawn at random from those tested, without regard to their results.

For CN(CCC(=O)NC1CC1)CC(=O)NCc1ccco1 the result was 23.78%.
For Cc1ccc(-c2nnc(SCCC(N)=O)n2C)cc1 the result was 16.79%.
For CS(=O)(=O)N1CCSc2ccncc21 the result was 20.44%.
For O=S(=O)(Cc1ccc(Cl)cc1)c1ccccn1 the result was -6.132%.
For CCCC(=O)NC1CCN(C(=O)c2ccoc2)CC1 the result was -4.808%.
For COCC(C)Nc1ccccc1CN1C(=O)CCC1=O (stereo unspecified) the result was -3.696%.
For CSCCC(=O)NC(C1CCNCC1)[C@H]1C[C@H](O)C1 (stereo partly specified) the result was 2.303%.
For CC(C)C(=O)Nc1cccc(CN)c1 the result was -3.402%.
For COCCN(CCO)C(=O)Nc1ccc(OC)cc1 the result was -5.265%.
For Cc1ccc(CN(C)Cc2nccn2C)nc1 the result was -1.658%.
For COc1cccc(CNn2cnnc2)c1O the result was -1.722%.
For COc1ccsc1C(=O)Nc1nc(C)nn1C the result was -35.33%.
For CN1CCN(C(=O)CNS(=O)(=O)c2ccccc2)CC1 the result was -13.23%.
For O=S(=O)(NCCc1nc(-c2ccccc2)n[nH]1)C1CC1 the result was 17.46%.
For CN(C(=O)c1ccccc1)S(=O)(=O)c1ccccc1 the result was -25.13%.
For CCOC(=O)N(C)CC(=O)Nc1ccccc1F the result was -5.366%.
For CN(Cc1cccs1)C(=O)CCCNC(=O)C(C)(C)C the result was 1.963%.
For NCc1cccc(NC(=O)NC2CCOCC2)c1 the result was -4.306%.
For Nc1ccc(CN2CCOCC2)cn1 the result was 20.76%.
For Cc1c(C(=O)NC2CCN(S(C)(=O)=O)CC2)cnn1C the result was -12.88%.
For CCN(CCn1cccn1)C(=O)c1c(O)cccc1O the result was -7.762%.
For Cc1cc(NC(=O)CCc2cncc(F)c2)nc(=O)[nH]1 the result was 1.716%.
For CC(CS(C)(=O)=O)NC(=O)c1ccc(C#N)cc1 (stereo unspecified) the result was -4.862%.
For COc1ccc(CCN)c(F)c1 the result was -6.598%.
For CC(C)COc1ncc(C(=O)Nc2nnc[nH]2)cc1Cl the result was 13.61%.
For NS(=O)(=O)CCOCc1ccccc1 the result was 3.801%.
For OCc1noc(-c2ccccc2)n1 the result was 14.58%.
For CN(C)C(=O)CCCNC1CCC2(CCNCC2)CC1 the result was 4.801%.
For COCc1cccc(C(=O)NCC[C@@H]2CCCN2)c1 the result was -6.065%.
For O=C1CCC(C(=O)Nc2cccnc2)=NN1 the result was -0.7108%.
For Cc1nc2ncnn2c(N2CCNC(=O)CC2)c1C the result was -14.64%.
For OCCNC1CCCC1 the result was -0.3404%.
For CCN1CCCC1CNC(=O)c1ccccc1F (stereo unspecified) the result was -4.988%.
For N#CC1(NC(=O)CN2CCC(O)CC2)CCCCC1 the result was 0.5297%.
For CC(=O)Nc1nc(C(=O)N(C)C(C)CC(C)C)cs1 (stereo unspecified) the result was -7.684%.
For CCN(CC(=O)NC)S(=O)(=O)c1ccc(C(N)=O)cc1 the result was -6.106%.
For NC(=O)COc1ccccc1OCC(N)=O the result was -18.69%.
For CC(N)c1ccc(-n2cccn2)cc1 (stereo unspecified) the result was -19.44%.

Once more, the final 4:

Result for CC(=O)Nc1nc(C(=O)N(C)C(C)CC(C)C)cs1 (stereo unspecified) was -7.684%.
Result for CCN(CC(=O)NC)S(=O)(=O)c1ccc(C(N)=O)cc1 was -6.106%.
Result for NC(=O)COc1ccccc1OCC(N)=O was -18.69%.
Result for CC(N)c1ccc(-n2cccn2)cc1 (stereo unspecified) was -19.44%.